This is one part of the list. Shown are side measurements of this screen, not its main read-out; they come without a call. The list favours compounds with an active or inconclusive main result. Potencies come from curve fits of mixed quality, noted in brackets.

The term AC50 denotes the concentration at which the activity in the assay is half-maximal.

The nature of the assay: IkB Signaling. The note with it: ABC-DLBCL IkBa-CBG/CBR dual luciferase ratio (green luciferase fused to IkBa over red control in OCI-Ly3 lymphoma cells), 4 h; measured here: control luc red channel unless noted. The procedure, abridged: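 In this assay, an IκBα–CBG68 fusion accumulates when IKK-driven degradation is blocked; native CBR normalizes for cell number. OCI-Ly3 cells were treated 4 h with compound and doxycycline, then green and red light read after Chroma-Glo addition.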
With `Cc1noc2nc(C(=O)O)nc(N3CCCCC3)c12`, the AC50 was 39.8 µM [falling, single point].

Regarding `CCOC(=O)c1sc(SCC(=O)Nc2ccc(N(C)C)cc2)nc1N`, the AC50 is 3.16 µM [falling, full curve].

`CCCCN(CC)C(=O)Nc1ccc2c(c1)N(C)C(=O)c1ccccc1S2`: the AC50 is 12.6 µM [falling, partial curve].

For the molecule `COC(=O)c1c(C)sc(-c2c(-c3cccc(OC)c3)[nH]c3c2c(=O)[nH]c(=O)n3C)c1O`, the AC50 is 10 µM [falling, partial curve].

As for `COc1ccc(C)c2sc(N(Cc3cccnc3)C(=O)CCc3ccccc3)nc12`, the AC50 is 12.6 µM [falling, partial curve].

For `CCCn1c(=O)c2sccc2n2c(CCCC(=O)Nc3ccc(C)c(F)c3)nnc12`, the AC50 is 20 µM [falling, single point].

For the molecule `COc1ccc(-c2noc(CN3CCN(c4ccccc4OC)CC3)n2)cc1OC`, the AC50 is 39.8 µM [falling, single point].

In the case of `Cn1c(SCC(=O)Nc2nc3ccccc3s2)ncc(C(=O)Nc2ccccc2)c1=O`, the AC50 was 5.01 µM [falling, single point].

For `COc1cccc(CNC(=O)CN2C(=O)N(c3ccc(C)cc3C)S(=O)(=O)c3ccccc32)c1OC`, the AC50 was 39.8 µM [falling, single point].

As for `COc1ccc(C)cc1-n1cnc2cc(C(=O)NC3CCCCCC3)ccc21`, the AC50 is 15.8 µM [falling, partial curve].

On to `O=C(NCCc1ccccc1)c1cc(-c2ccco2)on1`, for which the AC50 was 0.0251 µM [rising, full curve, poor fit].

With `O=C(O)c1c(-c2ccccc2)oc2ccc(OCc3c(F)cccc3Cl)cc12`, the AC50 is 15.8 µM [falling, partial curve].

For the molecule `Cn1c(SC2=CS(=O)(=O)c3ccccc32)nc2ccccc21`, the AC50 is 6.31 µM [falling, partial curve].

For the molecule `COc1ccc(-c2nc3cc(C)ccn3c2NC(=O)c2cccc(F)c2)cc1`, the AC50 is 1 µM [falling, partial curve].

For the molecule `COc1ccc(C)cc1NC(=O)c1cnc2ccc(C)cn2c1=O`, the AC50 was 3.16 µM [rising, partial curve, poor fit].

In the case of `Cc1ccc(OCC(=O)NCC(c2ccc(Cl)cc2)N2CCOCC2)cc1C` (stereo not drawn), the AC50 was 25.1 µM [falling, partial curve, poor fit].

For `O=C(CCCCn1c(=O)c2ccccc2n(Cc2cccc(F)c2)c1=O)NCc1ccc2c(c1)OCO2`, the AC50 is 0.316 µM [rising, full curve, poor fit].

Consider `Cc1cccc(Nc2c(-c3ccsc3)nc3nc(C)cc(C)n23)c1`, for which the AC50 is 31.6 µM [falling, single point].

Values taken from PubChem BioAssay AID445 (National Center for Advancing Translational Sciences (NCATS), 2006).
